The record followed here is PubChem BioAssay AID445 (National Center for Advancing Translational Sciences (NCATS), 2006).

SMILES strings stand for the structures. The list shows a part of the results. Further columns of the screen follow, without active or inactive calls. Compounds called inactive in the main read-out are mostly missing here. Words in brackets tell the shape of the fitted curve; partial curves, single points and poor fits give uncertain potencies.

A short description of the assay: IkB Signaling. Conditions: ABC-DLBCL IkBa-CBG/CBR dual luciferase ratio (green luciferase fused to IkBa over red control in OCI-Ly3 lymphoma cells), 4 h. In a few lines: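 Curves were fitted separately to fusion (green), unfused (red) and ratio luminescence, then classed by r2, magnitude and activity. Cells: OCI-Ly3, 4 h compound plus doxycycline at 37C; 10 uM MG-132 defined full response.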
Where [1] appears, read: measured here: control luc red channel unless noted.
[2] abbreviates: measured here: IkB-luc green channel.
The mark [3] stands for this setting: measured here: control luc red channel.

A word on the AC50: it is the midpoint of the concentration-response curve, whichever way the signal moves. Regarding `CN(C)c1ccc(CNC(=O)c2ccc(NC(=O)N3CCCCc4ccccc43)cc2)cc1`, the AC50 under setting [1] is 25.1 µM [falling, single point].
The same measure, in the same setting: with `COc1ccc(-n2c(SCC(=O)Nc3cccc(C)c3C)nc3c([nH]c4ccccc43)c2=O)cc1` the figure was 31.6 µM [falling, partial curve, poor fit]; with `N#Cc1c(-n2ncnc2-c2cccc(Br)c2)sc2c1CCCCC2`, 0.794 µM [falling, full curve]; with `O=S(=O)(Nc1cc(F)ccc1F)c1ccc2[nH]c3c(c2c1)CCCCC3`, 0.2 µM [rising, full curve].
Turning to `CC1=CCC2(CO)COC(c3ccccc3O)C1C2` (centres undefined), the AC50 under setting [1] is 5.01 µM [rising, single point].
The same measure, in the same setting: in the case of `O=C(CCn1ccc2cc(S(=O)(=O)N3CCCC3)ccc21)NCc1cccc(Cl)c1` it was 25.1 µM [falling, single point]; in that of `OC(COc1ccc2ccccc2c1Br)Cn1ccnc1` (centres undefined), 15.8 µM [falling, partial curve].
Same read-out and setting: in the case of `c1ccc(-c2noc(-c3cccnc3)n2)cc1` it was 12.6 µM [falling, partial curve]; in that of `Cc1ccc(NC(=O)c2ccc(CNS(=O)(=O)c3ccc4c(c3)C(C)(C)C(=O)N4C)cc2)cc1C`, 3.98 µM [falling, partial curve]; in that of `CC(=O)N1c2ccc(S(=O)(=O)NCC3CCC(C(=O)Nc4ccc(C)c(C)c4)CC3)cc2CC1C` (centres undefined), 10 µM [falling, partial curve].
The same measure, in the same setting: in the case of `Cc1cccc(NC(=O)c2cc3ccccc3o2)c1` it was 5.01 µM [falling, partial curve]; in that of `COc1ccccc1N(C(=O)c1snc(C(N)=O)c1N)C(C(=O)NCCC(C)C)c1ccco1` (centres undefined), 15.8 µM [falling, partial curve]; in that of `CSCCC1NC2(C(=O)Nc3c(C)cc(Cl)cc32)[C@@H]2C(=O)N(C3CCCC3)C(=O)[C@H]12` (some centres undefined), 12.6 µM [falling, partial curve].
For `COc1ccc(-c2cc3n(n2)CCc2nc4ccccc4n2-3)cc1`, under setting [1], the AC50 was 3.98 µM [falling, partial curve].
The same measure, in the same setting: with `O=C(Nc1cccc(C(=O)N2CCN(c3cccc(Cl)c3)CC2)c1)c1nsc2ccccc12` the figure was 0.0794 µM [rising, full curve].
On the same count and under the same terms, with `Cc1ccccc1Cn1c2ccccc2c2cnn(CC(=O)NCC(C)c3ccccc3)c(=O)c21` (centres undefined) the figure was 2 µM [falling, full curve]; with `CCOc1ccc(C2c3c(oc4ccc(C)cc4c3=O)C(=O)N2CCCN(C)C)cc1` (centres undefined), 3.16 µM [rising, single point]; with `CCOC(=O)C1CCN(C(=O)c2ccc(NC(=O)c3nsc4ccccc34)cc2)CC1`, 0.501 µM [falling, full curve].
On the same count and under the same terms, with `COc1ccc(CNC(=O)C2CCCN(S(=O)(=O)c3ccc4c(c3)CCCN4C(C)=O)C2)cc1` (centres undefined) the figure was 0.158 µM [falling, full curve, poor fit].
For the compound `COc1ccccc1N1CCN(S(=O)(=O)c2ccc(F)c(C(=O)Nc3ccc(C)c(F)c3)c2)CC1`, the AC50 under setting [1] is 3.16 µM [falling, partial curve, poor fit].
For the compound `COc1ccc(CCNC(=O)c2cc(Sc3cccc(Cl)c3)nc3ccccc23)cc1OC`, the AC50 under setting [1] was 31.6 µM [falling, single point].
Same read-out and setting: with `CCc1ccc2[nH]c(=O)c(CN(CCCN3CCOCC3)C(=O)Nc3ccc(F)cc3)cc2c1` the figure was 12.6 µM [falling, partial curve].
Same read-out and setting: with `COc1ccc(CCNc2oc(-c3ccc(OC)c(OC)c3)nc2C#N)cc1` the figure was 20 µM [falling, partial curve].
Still for that read-out and setting: in the case of `O=C(Nc1cc(Cl)cc(Cl)c1)c1ccc(F)c(S(=O)(=O)N2CCCCCC2)c1` it was 5.01 µM [falling, partial curve]; in that of `Cc1ccc(C(C)C)c(OCCn2cc(C(=O)c3ccco3)c3ccccc32)c1`, 15.8 µM [falling, partial curve].
Take `COc1ccccc1N1CCN(C(=O)c2oc3ccccc3c2NC(=O)C(C)Oc2ccccc2)CC1` (centres undefined): the AC50 under setting [1] was 20 µM [falling, partial curve].
Same read-out and setting: with `Cc1ccc(C(=O)CC2(O)C(=O)N(CCc3ccccc3)c3ccc(Br)cc32)o1` (centres undefined) the figure was 25.1 µM [falling, partial curve]; with `O=C(c1ccc2c(c1)OCCO2)N(Cc1cccnc1)c1nc2ccc(F)cc2s1`, 39.8 µM [falling, single point].
Regarding `CC(C)Sc1nc2c(cnn2-c2ccccc2)c(=O)[nH]1`, the AC50 is, setting by setting: under setting [2], 31.6 µM [rising, partial curve]; under setting [3], 7.94 µM [falling, partial curve].
Consider `CCN(CC)CCCNC(=O)c1cc(-c2ccc(OC)c(OC)c2)on1`, for which the AC50 under setting [1] was 25.1 µM [falling, single point].
Same read-out and setting: with `Cc1ccc(NC(=O)C2CCCN2S(=O)(=O)c2cccc3cccnc23)cc1` (centres undefined) the figure was 0.316 µM [rising, full curve]; with `CC1CN(C(=O)N2CCC(C(=O)NC3CCCCCC3)CC2)c2cc(Cl)ccc2O1` (centres undefined), 20 µM [rising, partial curve]; with `O=C(Cn1cc(SCc2cccc(Cl)c2)c2ccccc21)N1CCOCC1`, 7.94 µM [falling, partial curve].
Consider `Cn1nc(CC(=O)Nc2ccc3c(c2)OCCO3)c2ccccc2c1=O`, for which the AC50 under setting [1] is 2.51 µM [falling, full curve, poor fit].
Take `Cc1cccc(NC(=O)CSc2nc3ccc(NC(=O)c4cccs4)cc3s2)c1`: the AC50 under setting [1] was 3.98 µM [falling, full curve].
Still for that read-out and setting: with `CC(C)c1ccc(OCc2cc(=O)n3c4c(sc3n2)CCCC4)cc1` the figure was 0.631 µM [rising, partial curve]; with `COc1ccc(OCC(=O)Nc2cc(-c3cccc(Cl)c3)nn2-c2ccccc2)cc1`, 2.51 µM [rising, full curve].
For the compound `CCc1ccc(Nc2cc(C)nc3nc(Cc4ccc(Cl)cc4)nn23)cc1`, the concentration at half-maximal activity (AC50) under setting [1] is 25.1 µM [falling, single point].
Same read-out and setting: with `CCOC(=O)c1ccc(CSc2nnc3cc(C)c4ccccc4n23)cc1` the figure was 39.8 µM [falling, single point]; with `COc1ccccc1NC(=O)CN(c1ccc(C(C)C)cc1)S(=O)(=O)c1c(C)noc1C`, 7.94 µM [falling, full curve].
For `CCCn1c(Nc2nc3ccccc3n2C)nc2ccccc21`, the AC50 runs as follows: under setting [2], 10 µM [rising, single point]; under setting [3], 12.6 µM [falling, partial curve].
In the case of `N#Cc1ccc(C(=O)N2CCN(c3nc4ccc(F)cc4s3)CC2)cc1`, the AC50 under setting [1] was 39.8 µM [falling, single point].
As for `COc1ccc(-c2oc3ncn4nc(-c5ccc(Cl)cc5)nc4c3c2-c2ccc(OC)cc2)cc1`, the concentration at half-maximal activity (AC50) under setting [1] is 0.0398 µM [rising, full curve].
The same measure, in the same setting: in the case of `COc1cc2c(cc1OC)C(c1ccc(Cl)cc1)N(c1ccc(C)c(F)c1)C(=O)C2` (centres undefined) it was 31.6 µM [falling, partial curve].
The same measure, in the same setting: with `CN1C(C(=O)Nc2ccc(OC(F)(F)F)cc2)=CC(c2ccc3c(c2)OCO3)=NS1(=O)=O` the figure was 25.1 µM [falling, single point].
Same read-out and setting: with `CCN(CC)c1ccc(NS(=O)(=O)c2ccc3c(c2)CCCN3C(C)=O)c(C)c1` the figure was 39.8 µM [falling, single point]; with `COc1ccc(C2c3c(n(C)c4ccccc34)C(=O)N2CC(=O)Nc2ccc(Cl)cc2)cc1` (centres undefined), 10 µM [falling, partial curve]; with `CCOC(=O)c1c(C)oc2ncnc(NCCc3ccccc3)c12`, 39.8 µM [falling, single point].
Regarding `CCCN1CCN(CCNC(=O)Nc2cc(OC)cc(OC)c2)CC1`, the AC50 under setting [1] is 31.6 µM [falling, partial curve, poor fit].
Turning to `Cc1ccc(S(=O)(=O)CCSc2nc(C)cc(C)c2C#N)cc1`, the AC50 under setting [1] was 15.8 µM [falling, partial curve].
The same measure, in the same setting: in the case of `Cc1ccc(C)c(NC(=O)CCCn2nc(C)c3sc4ccccc4c3c2=O)c1` it was 3.98 µM [rising, partial curve]; in that of `COc1cc(CN(C(=O)COc2ccc(C)c(C)c2)c2ccccn2)cc(OC)c1OC`, 31.6 µM [falling, single point]; in that of `CCOc1ccccc1NC(=O)CC1Nc2ccccc2NC1=O` (centres undefined), 25.1 µM [falling, partial curve].
Regarding `O=C(CSc1oc(-c2ccco2)nc1S(=O)(=O)c1ccc(Cl)cc1)c1ccc(Cl)cc1`, the half-maximal activity concentration (AC50) under setting [1] is 1 µM [falling, full curve].
Same read-out and setting: with `O=C(CSC1=NCCS1)Nc1ccccc1F` the figure was 12.6 nM [rising, partial curve, poor fit] [measured here: IkB-luc green channel].
Still for that read-out and setting: in the case of `Cc1ccc(CN2c3ccccc3S(=O)(=O)c3ccccc32)cc1` it was 10 µM [falling, partial curve]; in that of `CCCCC(CC)Cn1c2nc3ccccc3nc2c2c(=N)oc(C)nc21` (centres undefined), 25.1 µM [falling, single point].
On the same count and under the same terms, with `Cc1ccc(NC(=O)Cn2c(-c3ccc4c(c3)OCO4)cn(-c3ccccc3)c2=O)cc1` the figure was 25.1 µM [falling, partial curve]; with `Cc1ccc(CSc2nc(=O)c3c(n2C)NC(=O)CC3c2ccc(OC(C)C)cc2)cc1` (centres undefined), 20 µM [falling, single point]; with `CCC(C(=O)Nc1cccc(C#N)c1)n1c(=O)c(-c2ccccc2NC(C)=O)nc2ccccc21` (centres undefined), 0.316 µM [rising, partial curve, poor fit].
As to `Cc1ccc(S(=O)(=O)Nc2cc3c(cc2N2CCOCC2)n(C)c(=O)n3C)c(C)c1`, the AC50 under setting [1] was 0.126 µM [rising, full curve, poor fit].
With `CCn1cc(C(=O)NCCc2ccccc2)c(=O)c2cc(S(=O)(=O)N(C)C3CCCCC3)ccc21`, the AC50 under setting [1] was 39.8 µM [falling, single point].
